In PubChem BioAssay AID248 (DTP/NCI, 2004):
The list is a part of this screen's results and no random one: it gathers tests that were run many times, whatever their T/C, doses with no T/C, and many T/C values between a quarter and a half above the control. Other doses and runs of a compound stand elsewhere. T/C is the treated group as % of the vehicle group. Some entries give survivors of the animals treated and no T/C: the source files T/C as zero there, which appears to mark a toxic dose or a test without result, not a measured value. Some survivor counts are full or nearly so, which does not show that the dose was tolerated: survival well below the control is almost never listed, so the zero probably covers shortened survival too. Survivors were counted at the toxicity check, usually on the fifth day, unless a day is given; later deaths do not show. Schedule codes are those of the source, taken here to give the interval after Q, in days (D) or hours (H), and the number of doses after X. Some schedules carry Z or #; the key to these is not given. Some entries were tested several times; the results are listed from low to high. For survival time, this PubChem deposit counts one and a half times the control or more as active, and values a quarter to a half above the control carry no call in these data; other NCI protocols may use other cut-offs. Some T/C values carry the count of animals alive at the toxicity check (mostly the fifth day); where none is given, no animal had died by that day.

Test system: L1210 leukemia ip in BDF1 mice, survival T/C
Experiment: NCI In Vivo Anticancer Drug Screen. Data for tumor model L1210 Leukemia (intraperitoneal) in B6D2F1 (BDF1) mice
Conditions: T/C endpoint: mean survival time, higher T/C = longer survival
[1] = dose: 4.0 mg/kg/injection, schedule: Q01DX Z (oral), vehicle: acid diluted with saline
[2] = dose: 8.0 mg/kg/injection, schedule: Q01DX Z (oral), vehicle: acid diluted with saline

NC(Cc1c[nH]c2ccc(N(CCCl)CCCl)cc12)C(=O)O (stereo unspecified)
T/C (dose: 0.01 mg/kg/injection, schedule: Q07DX Z (ip), vehicle: acid diluted with saline): 142 % of control | T/C (dose: 0.03 mg/kg/injection, schedule: Q#A X Z (ip), vehicle: acid diluted with saline): 139 % of control | T/C (dose: 0.04 mg/kg/injection, schedule: Q01DX Z (ip), vehicle: saline): 133 % of control | T/C (dose: 0.06 mg/kg/injection, schedule: Q01DX Z (ip), vehicle: acid diluted with saline): 129 % of control | T/C (dose: 0.07 mg/kg/injection, schedule: Q01DX Z (ip), vehicle: saline): 128 % of control | T/C (dose: 0.09 mg/kg/injection, schedule: Q01DX009 (ip), vehicle: saline): 129 and 138 % of control | T/C (dose: 0.18 mg/kg/injection, schedule: Q01DX009 (ip), vehicle: saline): 132 % of control | T/C (dose: 0.18 mg/kg/injection, schedule: Q01DX Z (ip), vehicle: acid diluted with saline): 140 % of control | T/C (dose: 0.25 mg/kg/injection, schedule: Q01DX (oral), vehicle: acid diluted with saline): 130 % of control | T/C (dose: 0.25 mg/kg/injection, schedule: Q01DX Z (oral), vehicle: acid diluted with saline): 100, 102, 104, 110 % of control | T/C (dose: 0.25 mg/kg/injection, schedule: Q#A X Z (oral), vehicle: acid diluted with saline): 143 % of control | T/C (dose: 0.37 mg/kg/injection, schedule: Q01DX009 (ip), vehicle: saline): 135 and 136 % of control | T/C (dose: 0.5 mg/kg/injection, schedule: Q01DX (oral), vehicle: acid diluted with saline): 144 % of control | T/C (dose: 0.5 mg/kg/injection, schedule: Q01DX Z (oral), vehicle: acid diluted with saline): 104, 110, 115, 117, 130 % of control | T/C (dose: 0.5 mg/kg/injection, schedule: Q07DX003 (ip), vehicle: acid diluted with saline): 148 % of control | T/C (dose: 0.5 mg/kg/injection, schedule: Q07DX Z (ip), vehicle: acid diluted with saline): 138 % of control | T/C (dose: 0.54 mg/kg/injection, schedule: Q01DX Z (sc), vehicle: acid diluted with saline): 142 % of control | T/C (dose: 0.75 mg/kg/injection, schedule: Q01DX009 (ip), vehicle: saline): 138 % of control | T/C (dose: 0.75 mg/kg/injection, schedule: Q03DX (oral), vehicle: acid diluted with saline): 125 % of control | survivor count (dose: 0.8 mg/kg/injection, schedule: Q#A X Z (ip), vehicle: acid diluted with saline): 0 of 6 | survivor count (dose: 0.87 mg/kg/injection, schedule: Q01DX Z (ip), vehicle: saline): 6 of 6 | T/C (dose: 0.93 mg/kg/injection, schedule: Q01DX001 (ip), vehicle: carboxymethylcellulose (CMC)): 128 % of control | T/C (dose: 1.0 mg/kg/injection, schedule: Q01DX Z (oral), vehicle: acid diluted with saline): 120, 125, 135, 140, 144 % of control | survivor count (dose: 1.0 mg/kg/injection, schedule: Q#A X Z (oral), vehicle: acid diluted with saline): 5 of 6 | survivor count (dose: 1.3 mg/kg/injection, schedule: Q01DX Z (ip), vehicle: saline): 6 of 6 | survivor count (dose: 1.6 mg/kg/injection, schedule: Q01DX Z (ip), vehicle: acid diluted with saline): 4 of 6 | T/C (dose: 1.87 mg/kg/injection, schedule: Q01DX001 (ip), vehicle: carboxymethylcellulose (CMC)): 146 % of control | survivor count (dose: 1.9 mg/kg/injection, schedule: Q01DX Z (ip), vehicle: saline): 0 of 6 | T/C (dose: 2.0 mg/kg/injection, schedule: Q01DX Z (oral), vehicle: acid diluted with saline): 114, 122, 133, 135, 143, 148, 151 % of control | T/C (dose: 2.0 mg/kg/injection, schedule: Q03DX Z (oral), vehicle: acid diluted with saline): 126 % of control | survivor count (dose: 2.0 mg/kg/injection, schedule: Q#A X Z (oral), vehicle: acid diluted with saline): 3 of 6 | T/C (dose: 2.4 mg/kg/injection, schedule: Q01DX Z (oral), vehicle: saline): 135 % of control | survivor count (dose: 2.9 mg/kg/injection, schedule: Q01DX Z (ip), vehicle: saline): 0 of 6 | T/C (dose: 3.0 mg/kg/injection, schedule: Q03DX (oral), vehicle: acid diluted with saline): 143 % of control | T/C (dose: 3.5 mg/kg/injection, schedule: Q07DX Z (oral), vehicle: acid diluted with saline): 125 and 138 % of control | T/C [1]: 120, 130, 157, 162 % of control | survivor count [1]: 6 of 6 | T/C (dose: 4.0 mg/kg/injection, schedule: Q03DX Z (oral), vehicle: acid diluted with saline): 133 % of control [5 of 6 alive] | survivor count (dose: 4.0 mg/kg/injection, schedule: Q#A X Z (oral), vehicle: acid diluted with saline): 2 of 6 | survivor count (dose: 4.8 mg/kg/injection, schedule: Q01DX Z (sc), vehicle: acid diluted with saline): 2 of 6 | T/C (dose: 6.0 mg/kg/injection, schedule: Q03DX (oral), vehicle: acid diluted with saline): 127 % of control | T/C (dose: 7.0 mg/kg/injection, schedule: Q07DX Z (oral), vehicle: acid diluted with saline): 143 % of control | T/C [2]: 117 and 158 % of control | survivor count [2]: 2 of 6 and 5 of 6 | T/C (dose: 14.0 mg/kg/injection, schedule: Q07DX (oral), vehicle: acid diluted with saline): 127 % of control | survivor count (dose: 15.0 mg/kg/injection, schedule: Q01DX Z (sc), vehicle: acid diluted with saline): 1 of 6 | survivor count (dose: 16.0 mg/kg/injection, schedule: Q01DX Z (oral), vehicle: acid diluted with saline): 3 of 6 and 6 of 6 | survivor count (dose: 20.0 mg/kg/injection, schedule: Q01DX001 (ip), vehicle: saline): 5 of 6 | survivor count (dose: 24.0 mg/kg/injection, schedule: Q03DX (oral), vehicle: acid diluted with saline): 6 of 6 | survivor count (dose: 28.0 mg/kg/injection, schedule: Q07DX Z (oral), vehicle: acid diluted with saline): 6 of 6 | survivor count (dose: 40.0 mg/kg/injection, schedule: Q01DX001 (ip), vehicle: saline): 3 of 6 | survivor count (dose: 45.0 mg/kg/injection, schedule: Q01DX Z (sc), vehicle: acid diluted with saline): 0 of 6 | survivor count (dose: 80.0 mg/kg/injection, schedule: Q01DX001 (ip), vehicle: saline): 0 of 6 | survivor count (dose: 112.0 mg/kg/injection, schedule: Q01DX001 (oral), vehicle: acid diluted with saline): 1 of 6 | survivor count (dose: 160.0 mg/kg/injection, schedule: Q01DX001 (oral), vehicle: saline): 1 of 6 | survivor count (dose: 168.0 mg/kg/injection, schedule: Q01DX001 (oral), vehicle: acid diluted with saline): 2 of 6 | survivor count (dose: 204.0 mg/kg/injection, schedule: Q01DX001 (oral), vehicle: acid diluted with saline): 4 of 6 | survivor count (dose: 320.0 mg/kg/injection, schedule: Q01DX001 (oral), vehicle: saline): 2 of 6 | survivor count (dose: 363.0 mg/kg/injection, schedule: Q01DX 1 (oral), vehicle: acid diluted with saline): 6 of 6 | survivor count (dose: 484.0 mg/kg/injection, schedule: Q01DX 1 (oral), vehicle: acid diluted with saline): 6 of 6 | T/C (dose: 75.0 micrograms/kg/injection, schedule: Q01DX Z (ip), vehicle: saline): 127 % of control | T/C (dose: 90.0 micrograms/kg/injection, schedule: Q01DX009 (ip), vehicle: saline): 125 % of control | T/C (dose: 113.0 micrograms/kg/injection, schedule: Q01DX Z (ip), vehicle: saline): 134 % of control | T/C (dose: 170.0 micrograms/kg/injection, schedule: Q01DX Z (ip), vehicle: saline): 132 % of control | T/C (dose: 180.0 micrograms/kg/injection, schedule: Q01DX009 (ip), vehicle: saline): 131 % of control | T/C (dose: 260.0 micrograms/kg/injection, schedule: Q01DX Z (ip), vehicle: saline): 138 % of control | T/C (dose: 375.0 micrograms/kg/injection, schedule: Q01DX009 (ip), vehicle: saline): 143 % of control

c1ccc([P+](C2=NNCC2)(c2ccccc2)c2ccccc2)cc1
survivor count (dose: 50.0 mg/kg/injection, schedule: Q01DX009 (ip), vehicle: Klucel (hydroxypropylcellulose) (HPC)): 0 of 3 | survivor count (dose: 100.0 mg/kg/injection, schedule: Q01DX009 (ip), vehicle: Klucel (hydroxypropylcellulose) (HPC)): 0 of 3 and 0 of 6 | survivor count (dose: 200.0 mg/kg/injection, schedule: Q01DX009 (ip), vehicle: Klucel (hydroxypropylcellulose) (HPC)): 0 of 6 | survivor count (dose: 400.0 mg/kg/injection, schedule: Q01DX009 (ip), vehicle: Klucel (hydroxypropylcellulose) (HPC)): 0 of 6
